± gives the standard deviation of the averaged measurements. This is one part of the list.
Compound: Nc1nc2c(ncn2[C@@H]2O[C@H](COP(=O)(O)OP(=O)(O)OP(=O)(O)O)[C@@H](O)[C@H]2O)c(=O)[nH]1 [guanosine triphosphate]
Experiment: NP40-soluble protein abundance relative to vehicle (solubility fold change) (ratio); higher = more soluble protein in presence of GTP
In short: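 In three independent experiments, Jurkat crude lysate made by Dounce homogenisation was treated for 10 min at room temperature and then 3 min at 37 °C with eight concentrations ranging from 0.1 to 10 mM. It was then solubilised with 0.8% NP40 plus benzonase for 60 min at 4 °C and ultracentrifuged. The supernatant was TMT-labelled for LC-MS/MS, and each value is the fold change against the detergent-processed vehicle for the same replicate, using vsn-normalised intensities.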

The chains behind the UniProt entries cited, without tags or fusion partners. Where a name states a change or a piece, a line headed by the entry shows the natural chain unless it says otherwise.
UniProt Q5JSH3: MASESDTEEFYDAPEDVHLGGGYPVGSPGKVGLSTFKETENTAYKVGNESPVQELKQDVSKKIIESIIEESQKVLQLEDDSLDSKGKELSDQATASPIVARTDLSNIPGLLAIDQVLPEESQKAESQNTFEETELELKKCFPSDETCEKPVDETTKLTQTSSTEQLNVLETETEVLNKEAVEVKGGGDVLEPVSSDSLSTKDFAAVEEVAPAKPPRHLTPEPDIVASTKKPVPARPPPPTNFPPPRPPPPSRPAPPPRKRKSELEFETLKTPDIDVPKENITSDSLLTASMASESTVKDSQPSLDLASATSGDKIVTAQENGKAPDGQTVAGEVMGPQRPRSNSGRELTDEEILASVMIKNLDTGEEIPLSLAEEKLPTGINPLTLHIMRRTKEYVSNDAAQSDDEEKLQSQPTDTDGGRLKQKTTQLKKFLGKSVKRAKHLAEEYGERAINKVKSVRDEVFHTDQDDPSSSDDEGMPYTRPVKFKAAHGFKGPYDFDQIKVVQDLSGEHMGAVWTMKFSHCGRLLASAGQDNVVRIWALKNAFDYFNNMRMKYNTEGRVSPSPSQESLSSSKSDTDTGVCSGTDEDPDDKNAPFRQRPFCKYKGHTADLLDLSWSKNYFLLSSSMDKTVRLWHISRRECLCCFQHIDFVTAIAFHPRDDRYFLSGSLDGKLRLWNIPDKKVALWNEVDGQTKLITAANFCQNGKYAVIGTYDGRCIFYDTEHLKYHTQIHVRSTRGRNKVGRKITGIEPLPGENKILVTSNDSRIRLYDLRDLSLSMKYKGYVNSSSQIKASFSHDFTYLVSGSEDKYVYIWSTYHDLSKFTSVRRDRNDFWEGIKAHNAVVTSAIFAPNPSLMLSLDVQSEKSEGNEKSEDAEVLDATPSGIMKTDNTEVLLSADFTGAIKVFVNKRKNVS
UniProt Q15691: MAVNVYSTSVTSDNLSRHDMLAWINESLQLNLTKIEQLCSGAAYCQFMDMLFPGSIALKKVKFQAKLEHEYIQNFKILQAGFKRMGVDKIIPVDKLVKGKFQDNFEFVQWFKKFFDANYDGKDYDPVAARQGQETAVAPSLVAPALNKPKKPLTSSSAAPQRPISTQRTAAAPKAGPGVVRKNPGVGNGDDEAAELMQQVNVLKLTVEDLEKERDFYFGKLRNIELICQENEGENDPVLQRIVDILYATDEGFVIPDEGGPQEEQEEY
UniProt Q53H12: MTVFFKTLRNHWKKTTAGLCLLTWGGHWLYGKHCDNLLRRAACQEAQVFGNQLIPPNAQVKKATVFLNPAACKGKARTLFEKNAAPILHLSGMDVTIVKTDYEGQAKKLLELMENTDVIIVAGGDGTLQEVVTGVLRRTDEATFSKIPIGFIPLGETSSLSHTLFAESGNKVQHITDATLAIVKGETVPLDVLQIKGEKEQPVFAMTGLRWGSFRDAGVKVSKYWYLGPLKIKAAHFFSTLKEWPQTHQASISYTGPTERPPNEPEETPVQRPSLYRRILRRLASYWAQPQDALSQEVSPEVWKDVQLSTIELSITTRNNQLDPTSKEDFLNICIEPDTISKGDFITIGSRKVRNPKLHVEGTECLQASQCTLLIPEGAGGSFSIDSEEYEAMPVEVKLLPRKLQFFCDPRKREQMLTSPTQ
UniProt Q15027: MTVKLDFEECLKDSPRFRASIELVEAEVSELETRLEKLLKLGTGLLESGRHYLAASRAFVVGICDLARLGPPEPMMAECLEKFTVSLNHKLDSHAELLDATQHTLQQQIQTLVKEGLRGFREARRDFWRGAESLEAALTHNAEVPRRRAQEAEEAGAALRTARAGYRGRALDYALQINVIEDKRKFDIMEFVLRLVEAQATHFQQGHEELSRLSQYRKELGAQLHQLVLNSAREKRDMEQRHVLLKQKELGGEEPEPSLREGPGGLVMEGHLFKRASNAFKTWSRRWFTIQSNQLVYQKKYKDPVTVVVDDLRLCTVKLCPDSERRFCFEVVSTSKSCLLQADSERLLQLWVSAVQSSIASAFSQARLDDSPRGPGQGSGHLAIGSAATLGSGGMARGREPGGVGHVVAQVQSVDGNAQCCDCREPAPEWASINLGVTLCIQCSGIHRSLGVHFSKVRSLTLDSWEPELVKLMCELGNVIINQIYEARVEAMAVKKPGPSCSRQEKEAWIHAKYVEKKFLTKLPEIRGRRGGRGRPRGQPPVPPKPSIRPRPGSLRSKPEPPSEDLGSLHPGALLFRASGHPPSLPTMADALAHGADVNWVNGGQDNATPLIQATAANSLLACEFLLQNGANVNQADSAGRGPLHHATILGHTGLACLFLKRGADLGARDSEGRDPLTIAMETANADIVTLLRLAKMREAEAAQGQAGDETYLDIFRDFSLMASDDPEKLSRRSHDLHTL
UniProt Q16222: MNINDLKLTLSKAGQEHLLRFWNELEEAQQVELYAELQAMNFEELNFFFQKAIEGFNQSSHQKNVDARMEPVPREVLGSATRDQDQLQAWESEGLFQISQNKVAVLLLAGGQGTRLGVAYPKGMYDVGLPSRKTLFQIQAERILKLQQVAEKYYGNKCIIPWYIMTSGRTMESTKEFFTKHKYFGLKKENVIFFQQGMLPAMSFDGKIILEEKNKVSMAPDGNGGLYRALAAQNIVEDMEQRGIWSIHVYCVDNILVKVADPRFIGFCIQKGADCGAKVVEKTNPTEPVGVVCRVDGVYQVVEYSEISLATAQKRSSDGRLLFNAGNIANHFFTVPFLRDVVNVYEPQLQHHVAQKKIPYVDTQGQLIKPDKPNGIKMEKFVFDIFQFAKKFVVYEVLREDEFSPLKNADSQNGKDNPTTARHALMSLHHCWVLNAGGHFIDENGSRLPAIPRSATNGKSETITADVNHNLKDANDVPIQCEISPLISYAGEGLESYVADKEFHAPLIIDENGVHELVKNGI
UniProt Q5JRA6: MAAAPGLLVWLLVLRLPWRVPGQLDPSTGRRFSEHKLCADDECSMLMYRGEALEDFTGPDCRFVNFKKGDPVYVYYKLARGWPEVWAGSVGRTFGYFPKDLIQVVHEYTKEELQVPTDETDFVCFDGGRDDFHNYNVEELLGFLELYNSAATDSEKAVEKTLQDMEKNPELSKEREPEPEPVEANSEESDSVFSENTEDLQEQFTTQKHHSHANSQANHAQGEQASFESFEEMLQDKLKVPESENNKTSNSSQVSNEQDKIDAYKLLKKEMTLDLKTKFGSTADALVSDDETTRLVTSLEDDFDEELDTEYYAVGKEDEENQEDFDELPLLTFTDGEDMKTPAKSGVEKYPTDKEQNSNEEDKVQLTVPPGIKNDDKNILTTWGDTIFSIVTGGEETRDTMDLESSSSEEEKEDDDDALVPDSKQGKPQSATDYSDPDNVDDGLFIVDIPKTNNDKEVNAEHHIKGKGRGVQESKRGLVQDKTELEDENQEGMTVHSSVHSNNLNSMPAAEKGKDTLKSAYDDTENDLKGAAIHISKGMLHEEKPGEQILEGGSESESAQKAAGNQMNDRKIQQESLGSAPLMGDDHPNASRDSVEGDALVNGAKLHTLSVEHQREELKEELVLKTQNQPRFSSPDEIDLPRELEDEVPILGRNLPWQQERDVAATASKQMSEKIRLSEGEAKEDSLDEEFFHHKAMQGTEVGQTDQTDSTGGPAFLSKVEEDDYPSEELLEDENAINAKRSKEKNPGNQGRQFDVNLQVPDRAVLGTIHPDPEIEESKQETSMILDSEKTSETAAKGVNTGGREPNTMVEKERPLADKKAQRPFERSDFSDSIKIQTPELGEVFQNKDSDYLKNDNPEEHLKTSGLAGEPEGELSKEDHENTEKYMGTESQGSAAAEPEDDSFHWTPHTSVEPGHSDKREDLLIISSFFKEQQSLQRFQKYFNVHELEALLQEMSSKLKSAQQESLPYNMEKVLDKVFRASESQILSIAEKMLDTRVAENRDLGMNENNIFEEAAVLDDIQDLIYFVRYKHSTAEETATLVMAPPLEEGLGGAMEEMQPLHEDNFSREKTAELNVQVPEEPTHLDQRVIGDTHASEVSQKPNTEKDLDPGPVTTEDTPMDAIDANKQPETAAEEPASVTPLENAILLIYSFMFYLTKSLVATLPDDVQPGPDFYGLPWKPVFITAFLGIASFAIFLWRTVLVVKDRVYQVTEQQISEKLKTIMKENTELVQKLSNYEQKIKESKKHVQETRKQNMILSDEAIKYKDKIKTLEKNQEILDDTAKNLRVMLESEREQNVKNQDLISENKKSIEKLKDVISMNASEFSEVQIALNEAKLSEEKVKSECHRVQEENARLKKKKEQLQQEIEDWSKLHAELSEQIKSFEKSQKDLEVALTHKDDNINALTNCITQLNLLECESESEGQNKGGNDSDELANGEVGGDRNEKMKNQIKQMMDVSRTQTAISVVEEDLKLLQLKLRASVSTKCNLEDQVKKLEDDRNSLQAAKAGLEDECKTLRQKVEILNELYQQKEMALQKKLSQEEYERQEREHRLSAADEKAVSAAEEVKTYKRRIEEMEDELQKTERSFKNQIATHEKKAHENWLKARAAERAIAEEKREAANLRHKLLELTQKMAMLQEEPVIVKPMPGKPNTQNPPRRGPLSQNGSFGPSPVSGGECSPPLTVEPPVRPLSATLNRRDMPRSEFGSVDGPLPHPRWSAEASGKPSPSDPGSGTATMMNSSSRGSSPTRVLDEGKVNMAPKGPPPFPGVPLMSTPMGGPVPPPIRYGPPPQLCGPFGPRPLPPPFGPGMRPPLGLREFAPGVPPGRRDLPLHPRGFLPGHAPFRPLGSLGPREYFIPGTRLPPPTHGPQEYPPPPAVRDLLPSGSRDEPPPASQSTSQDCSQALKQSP
UniProt Q15424: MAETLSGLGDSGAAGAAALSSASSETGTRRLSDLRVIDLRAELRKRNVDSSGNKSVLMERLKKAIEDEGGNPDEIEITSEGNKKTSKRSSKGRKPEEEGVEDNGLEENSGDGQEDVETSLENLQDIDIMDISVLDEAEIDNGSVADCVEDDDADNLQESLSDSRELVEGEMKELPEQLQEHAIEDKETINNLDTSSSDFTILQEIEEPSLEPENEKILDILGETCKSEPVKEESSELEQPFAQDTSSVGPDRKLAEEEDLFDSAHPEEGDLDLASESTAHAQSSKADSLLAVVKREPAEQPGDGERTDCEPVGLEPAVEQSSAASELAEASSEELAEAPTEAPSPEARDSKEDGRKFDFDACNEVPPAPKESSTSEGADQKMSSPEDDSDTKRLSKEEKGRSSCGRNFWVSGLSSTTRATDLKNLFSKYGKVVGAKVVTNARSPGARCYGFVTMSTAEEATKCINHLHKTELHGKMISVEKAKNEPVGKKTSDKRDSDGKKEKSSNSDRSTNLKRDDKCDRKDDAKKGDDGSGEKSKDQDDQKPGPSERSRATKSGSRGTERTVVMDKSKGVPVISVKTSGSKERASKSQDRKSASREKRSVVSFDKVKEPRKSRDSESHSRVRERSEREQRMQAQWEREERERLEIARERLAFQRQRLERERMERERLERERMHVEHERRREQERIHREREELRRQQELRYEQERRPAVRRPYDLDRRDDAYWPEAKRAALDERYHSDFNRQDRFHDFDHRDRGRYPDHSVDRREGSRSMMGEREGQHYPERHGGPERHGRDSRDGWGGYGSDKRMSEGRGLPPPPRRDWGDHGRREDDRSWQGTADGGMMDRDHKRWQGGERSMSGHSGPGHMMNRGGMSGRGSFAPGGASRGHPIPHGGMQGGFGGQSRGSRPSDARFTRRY
UniProt Q3B726, whole entry: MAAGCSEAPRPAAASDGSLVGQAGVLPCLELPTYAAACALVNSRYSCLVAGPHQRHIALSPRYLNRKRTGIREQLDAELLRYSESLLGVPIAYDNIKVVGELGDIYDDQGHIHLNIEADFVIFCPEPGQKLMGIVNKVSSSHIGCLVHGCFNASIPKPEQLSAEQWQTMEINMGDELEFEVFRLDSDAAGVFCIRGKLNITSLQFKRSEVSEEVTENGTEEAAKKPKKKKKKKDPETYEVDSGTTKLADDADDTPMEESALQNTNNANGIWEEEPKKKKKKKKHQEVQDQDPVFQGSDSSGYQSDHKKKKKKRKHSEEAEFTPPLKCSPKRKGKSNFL

Row | Target | NP40-soluble protein abundance (concentration: 0.1mM) | NP40-soluble protein abundance (concentration: 0.5mM) | NP40-soluble protein abundance (concentration: 1mM) | NP40-soluble protein abundance (concentration: 2mM) | NP40-soluble protein abundance (concentration: 4mM) | NP40-soluble protein abundance (concentration: 6mM) | NP40-soluble protein abundance (concentration: 8mM) | NP40-soluble protein abundance (concentration: 10mM)
1 | UniProt Q5JSH3 and related entries | 0.964 ± 0.05 | 0.965 ± 0.038 | 0.958 ± 0.064 | 0.925 ± 0.057 | 0.922 ± 0.09 | 0.911 ± 0.075 | 0.949 ± 0.056 | 0.922 ± 0.061
2 | UniProt Q2TAY7 | 1.06 ± 0.093 | 1.06 ± 0.12 | 0.965 ± 0.052 | 1.04 ± 0.13 | 1.07 ± 0.12 | 1.08 ± 0.08 | 1.08 ± 0.035 | 1.1 ± 0.12
3 | RABEP1 (UniProt Q15276) | 0.978 ± 0.034 | 0.956 ± 0.033 | 0.97 ± 0.041 | 0.945 ± 0.065 | 0.927 ± 0.056 | 0.935 ± 0.062 | 0.956 ± 0.016 | 0.943 ± 0.034
4 | MAPRE1 (UniProt Q15691) | 0.848 ± 0.025 | 0.834 ± 0.023 | 0.946 ± 0.043 | 0.932 ± 0.017 | 0.88 ± 0.021 | 0.922 ± 0.046 | 0.87 ± 0.056 | 0.949 ± 0.034
5 | UniProt Q53H12 and related entries | 1.05 ± 0.034 | 1.07 ± 0.028 | 0.997 ± 0.021 | 1 ± 0.016 | 0.976 ± 0.018 | 1 ± 0.024 | 0.983 ± 0.015 | 0.904 ± 0.045
6 | C9orf64 (UniProt Q5T6V5) | 1.09 ± 0.049 | 1.06 ± 0.037 | 0.945 ± 0.051 | 0.948 ± 0.03 | 0.902 ± 0.035 | 0.884 ± 0.057 | 0.868 ± 0.054 | 0.844 ± 0.081
7 | ACAP1 (UniProt Q15027) | 1 ± 0.035 | 1.01 ± 0.047 | 0.934 ± 0.036 | 0.933 ± 0.061 | 0.948 ± 0.066 | 0.908 ± 0.041 | 0.885 ± 0.026 | 0.86 ± 0.018
8 | ZNF326 (UniProt Q5BKZ1) | 1.14 ± 0.09 | 1.16 ± 0.13 | 1.27 ± 0.21 | 1.38 ± 0.21 | 1.46 ± 0.32 | 1.44 ± 0.29 | 1.52 ± 0.31 | 1.53 ± 0.3
9 | UniProt Q16222 and related entries | 1.05 ± 0.032 | 1.02 ± 0.06 | 0.9429 ± 0.0046 | 0.957 ± 0.043 | 0.971 ± 0.042 | 0.927 ± 0.017 | 0.897 ± 0.012 | 0.883 ± 0.051
10 | MIA3 (UniProt Q5JRA6) | 0.965 ± 0.061 | 0.948 ± 0.087 | 0.998 ± 0.071 | 0.946 ± 0.11 | 0.953 ± 0.08 | 0.968 ± 0.13 | 0.985 ± 0.053 | 1.01 ± 0.067
11 | MAPRE2 (UniProt Q15555) | 0.91 ± 0.046 | 0.917 ± 0.065 | 0.95 ± 0.031 | 0.892 ± 0.058 | 0.859 ± 0.066 | 0.903 ± 0.066 | 0.9 ± 0.05 | 0.871 ± 0.042
12 | UniProt Q15424 and related entries | 0.958 ± 0.048 | 0.938 ± 0.052 | 1.04 ± 0.039 | 1.09 ± 0.081 | 1.19 ± 0.066 | 1.25 ± 0.041 | 1.38 ± 0.083 | 1.44 ± 0.083
13 | TWISTNB (UniProt Q3B726) | 1.03 ± 0.072 | 1.08 ± 0.06 | 1.08 ± 0.12 | 1.16 ± 0.04 | 1.15 ± 0.095 | 1.23 ± 0.11 | 1.35 ± 0.13 | 1.29 ± 0.13
14 | KIF14 (UniProt Q15058) | 1.05 ± 0.012 | 1.14 ± 0.046 | 1.04 ± 0.059 | 1.11 ± 0.18 | 1.24 ± 0.12 | 1.22 ± 0.15 | 1.17 ± 0.15 | 1.13 ± 0.075
15 | HECTD3 (UniProt Q5T447) | 1.05 ± 0.12 | 1.14 ± 0.082 | 1.01 ± 0.099 | 1.08 ± 0.17 | 1.14 ± 0.19 | 1.2 ± 0.22 | 1.27 ± 0.27 | 1.29 ± 0.33

Two records drawn at random from those above, as already listed:
Row | Target | NP40-soluble protein abundance (concentration: 0.1mM) | NP40-soluble protein abundance (concentration: 0.5mM) | NP40-soluble protein abundance (concentration: 1mM) | NP40-soluble protein abundance (concentration: 2mM) | NP40-soluble protein abundance (concentration: 4mM) | NP40-soluble protein abundance (concentration: 6mM) | NP40-soluble protein abundance (concentration: 8mM) | NP40-soluble protein abundance (concentration: 10mM)
10 | MIA3 (UniProt Q5JRA6) | 0.965 ± 0.061 | 0.948 ± 0.087 | 0.998 ± 0.071 | 0.946 ± 0.11 | 0.953 ± 0.08 | 0.968 ± 0.13 | 0.985 ± 0.053 | 1.01 ± 0.067
3 | RABEP1 (UniProt Q15276) | 0.978 ± 0.034 | 0.956 ± 0.033 | 0.97 ± 0.041 | 0.945 ± 0.065 | 0.927 ± 0.056 | 0.935 ± 0.062 | 0.956 ± 0.016 | 0.943 ± 0.034

Source: the supplement of paper PMC6411743
